Data: PubChem BioAssay AID504444 (National Center for Advancing Translational Sciences (NCATS), 2011)
Screen size: about 360,000 compounds; about 7,500 (2.1%) were called active. Inconclusive results, whose numbers are uncertain, are shown with a selection of clear calls. Calls follow the shape of the dose curve; as a rule, active = well fitted inhibition curve with a large enough effect; inconclusive = small, poorly fitted or top-dose-only effect, or effect the other way; inactive = flat fitted curve, though single readings scatter. Where the call is inconclusive, the potency comes from a doubtful curve fit.

experiment: Nrf2 qHTS screen for inhibitors; conditions: A549 ARE-Fluc reporter, luciferase luminescence, 18-24 h; activity change, negative = inhibition: at 46 µM (top of the series); also: nearly all actives have a fitted effect of over 60% in size
Outline: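 Nrf2 function is reported as luminescence of an ARE-controlled luciferase in A549 cells. Compounds were tested at several concentrations, and a CellTiter-Fluor read on the same wells flagged cytotoxicity.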
% is scaled to controls: 0 for no effect and ±100 for the full control effect; potency is read from the fitted curve at half-maximal effect.

Row | Compound | Potency | activity change, negative = inhibition
1 | COc1ccccc1OCCn1nnc2ccccc21 | inconclusive: 20.6 µM [activator, single point] | –
2 | O=C(NCCc1ccccc1)c1cccc(NC(=O)C2CCCC2)c1 | inconclusive: 6.51 µM [activator, partial curve, poor fit] | –
3 | S=c1[nH]nc(-c2ccco2)n1/N=C/c1cccc(Cl)c1 | – | inactive: -3.08%
4 | CCc1ccccc1NC(=O)CSc1nc2c(oc3ccccc32)c(=O)n1-c1ccccc1F | inconclusive: 2.59 µM [falling, full curve, poor fit] | –
5 | CC(=O)Nc1ccc(S(=O)(=O)N2CCN(C(=O)C3COc4ccccc4O3)CC2)cc1 (stereo unspecified) | inconclusive: 6.51 µM [falling, partial curve] | –
6 | O=C(CN(Cc1ccco1)Cc1cccs1)N1CCN(S(=O)(=O)c2cccc(F)c2)CC1 | inconclusive: 25.9 µM [activator, single point] | –
7 | CC(=O)Nc1ccc(-c2nnc(SCC(=O)c3ccc([N+](=O)[O-])cc3)o2)cc1 | – | inactive: 4.9%
8 | O=C(NCCN1CCOCC1)c1sc2ccccc2c1Cl | inconclusive: 2.31 µM [activator, full curve] | –
9 | Cc1ccc(C(=O)Nc2ccc(C)c(S(=O)(=O)N(C)C)c2)s1 | inconclusive: 20.6 µM [activator, partial curve] | –
10 | COc1ccccc1-c1sc2ccccc2c1C#CC1(O)CCCCC1 | inconclusive: 32.6 µM [falling, single point] | –
11 | CSCC[C@H](NC(=O)c1cccc(S(=O)(=O)N2CCCCCC2)c1)c1nc2ccccc2[nH]1 | active: 18.4 µM | –
12 | O=C(O)/C=C/C(=O)Nc1ccc(S(=O)(=O)Nc2nccs2)cc1 | – | inactive: 18.9%
13 | CC(C)CN1CCN(Cc2cnc(-c3ccc(Cl)cc3)nc2)CC1CCO (stereo unspecified) | inconclusive: 4.11 µM [falling, full curve, poor fit] | –
14 | CCn1c(SCC(=O)Nc2nccs2)nnc1-c1ccc(S(=O)(=O)N2CCCCCC2)cc1 | – | inactive: -26.5%
15 | CN(C)C(=S)N=Nc1[nH]c2ccccc2c1O | – | inactive: 13.4%
16 | CC1=CC(C)[C@H](/C=N/n2c(=O)[nH]c3c([nH]c4ccc(Br)cc43)c2=O)C(C)C1 (stereo partly specified) | inconclusive: 20.6 µM [falling, single point] | –
17 | Cc1ccc(-n2cc(CN3CCC(O)(c4ccccn4)CC3)c(-c3ccc(F)cc3)n2)cc1 | inconclusive: 29.1 µM [falling, single point] | –
18 | CCOc1ccc(S(=O)(=O)NCc2ccccn2)cc1NC(=O)c1ccccc1 | inconclusive: 16.4 µM [activator, partial curve] | –
19 | Cc1cccn2c(=O)c3cc(C(=O)N(Cc4ccccc4)C(C)C)sc3nc12 | inconclusive: 29.1 µM [falling, single point] | –
20 | Cc1cccc(C(=O)Nc2nc(-c3nnn(-c4cc(F)ccc4F)c3C)ns2)c1 | inconclusive: 8.2 µM [falling, partial curve, poor fit] | –
21 | Cc1cccc(OCC(=O)Nc2nnc(-c3ccco3)s2)c1 | inconclusive: 32.6 µM [activator, partial curve, poor fit] | –
22 | CCc1ccccc1OCC(=O)Nc1ccc(C)c(S(=O)(=O)N2CCCCCC2)c1 | active: 25.9 µM | –

Record cards, as listed above. Order of values: Potency	activity change, negative = inhibition
CN(C)C(=S)N=Nc1[nH]c2ccccc2c1O in the list: –	inactive: 13.4%
O=C(CN(Cc1ccco1)Cc1cccs1)N1CCN(S(=O)(=O)c2cccc(F)c2)CC1 in the list: inconclusive: 25.9 µM [activator, single point]	–
CC1=CC(C)[C@H](/C=N/n2c(=O)[nH]c3c([nH]c4ccc(Br)cc43)c2=O)C(C)C1 (stereo partly specified) in the list: inconclusive: 20.6 µM [falling, single point]	–

(listing goes on)

Row | Compound | Potency | activity change, negative = inhibition
23 | Oc1ccc(CCc2ccccc2)c2cccnc12 | inconclusive: 23.1 µM [falling, single point] | –
24 | CC(=O)CC(=O)Nc1ncc(C(F)(F)F)cc1Cl | inconclusive: 5.17 µM [activator, full curve, poor fit] | –
25 | COc1ccc2c(c1)CCc1cc(C(=O)N3CCN(c4ccc(N5CCOCC5)nn4)CC3)sc1-2 | active: 18.4 µM | –
26 | Cc1ccc(NC(=O)C2CC3CCC2C3)c(Br)c1 (stereo unspecified) | inconclusive: 16.4 µM [activator, partial curve] | –
27 | COc1cc(N2CCCC2)c(OC)cc1/C=C(/C#N)c1cccc(F)c1 | – | inactive: 1.52%
28 | CCOC(=O)C1=C(CN(CC)Cc2ccccc2)NC(=O)NC1c1ccc(OC(C)C)cc1 (stereo unspecified) | active: 18.4 µM | –
29 | CCOc1ccc2nc3sc(C(=O)N4CCN(C)CC4)c(N)c3cc2c1 | inconclusive: 7.31 µM [falling, partial curve, poor fit] | –
30 | Cc1c(NC(=O)CN2CCN(c3cccc(Cl)c3)CC2)c(=O)n(-c2ccccc2)n1C | inconclusive: 10.3 µM [falling, partial curve] | –
31 | CSc1ccc(S(=O)(=O)Nc2ccc3c4c(cccc24)CC3)cc1 | active: 18.4 µM | –
32 | CC(C)c1ccc(C=NNc2ccc([N+](=O)[O-])cn2)cc1 | inconclusive: 8.2 µM [activator, partial curve] | –
33 | COc1ccc(/C=C/c2nc3cc(-c4ccccc4)ccc3o2)cc1O | – | inactive: 3.13%
34 | CCOc1ccc(CCNC(=O)c2[nH]c3cc(OC)ccc3c2Sc2ccccc2)cc1OCC | – | inactive: -11.1%
35 | CCCc1cc(=O)[nH]c(SCC(=O)c2c(N)n(C3CC3)c(=O)[nH]c2=O)n1 | – | inactive: -24.7%
36 | Cc1ccsc1CN(C)C(=O)CCc1nnc(COc2ccccc2)o1 | inconclusive: 7.31 µM [activator, partial curve] | –
37 | COc1ccc(NC(=O)c2cccc(OC(=S)N3CCOCC3)c2)cc1 | inconclusive: 18.4 µM [falling, single point] | –
38 | COc1ccc(-c2csc(N(CCCN(C)C)C(=O)c3cccs3)n2)cc1 | – | inactive: 16.9%
39 | COc1ccc(N2CCN(c3ccc(-c4nc(-c5cccc(C)c5)no4)cc3[N+](=O)[O-])CC2)cc1 | inconclusive: 14.6 µM [activator, single point] | –
40 | Oc1ccc(C(=S)N2CCN(c3cccc(Cl)c3)CC2)cc1 | inconclusive: 29.1 µM [falling, single point] | –
41 | Cc1cc(C)cc(C(=O)NCC(=O)OCC(=O)NC2CC2)c1 | – | inactive: -2.11%
42 | O=C(Cn1c(=O)n(Cc2ccc(F)cc2)c(=O)c2ccccc21)NCC1CCCO1 (stereo unspecified) | – | inactive: -6.23%
43 | Cc1cc(C)c(NC(=O)CSc2nc(-c3ccc(F)cc3)nc3c2Cc2c(CO)cnc(C)c2O3)c(C)c1 | inconclusive: 13 µM [activator, partial curve] | –
44 | C/C(CC(=O)Nc1ccc(F)cc1)=N\NC(=O)c1ccccn1 | inconclusive: 18.4 µM [activator, partial curve] | –

Row | Compound | Potency | activity change, negative = inhibition
45 | CCOC(=O)C[C@H]1c2ccccc2S(=O)(=O)N1Cc1ccc(Cl)cc1 | inconclusive: 18.4 µM [falling, single point] | –
46 | Cc1ccccc1CSc1nc2cccnc2n1Cc1ccc(C(=O)NC2CC2)cc1 | inconclusive: 20.6 µM [activator, single point] | –
47 | CCOc1ccc(Nc2nc(C)c(NC(=O)c3cccc(OC)c3)c(Nc3ccc(OCC)cc3)n2)cc1 | inconclusive: 29.1 µM [falling, single point] | –
48 | COc1cccc(CN(C)C(=O)CNC(=O)c2ccc(-c3ccccc3)cc2)c1OC | active: 4.61 µM | –
49 | COc1ccccc1OCCCCOc1ccccc1C(C)=O | inconclusive: 23.1 µM [falling, partial curve, poor fit] | –
50 | O=C(NCCCN1CCCC1=O)c1ccc(NS(=O)(=O)c2ccc(F)cc2)cc1 | inconclusive: 14.6 µM [activator, partial curve, poor fit] | –
51 | CN1CCN(c2cc(N3CCc4ccccc4C3)c(F)cc2[N+](=O)[O-])CC1 | – | inactive: 13.3%
52 | CCOC(=O)C1C(=O)CC(C)(O)C(C(=O)OCC)C1c1ccc(OC)cc1 (stereo unspecified) | – | inactive: 10.3%
53 | Cc1cccc(NC(=O)c2ccc(-n3ccnc3)nc2)c1 | inconclusive: 9.2 µM [falling, partial curve, poor fit] | –
54 | Cc1ccc(N2CCN(S(=O)(=O)c3nnc(NC(=O)c4ccc(C(C)C)cc4)s3)CC2)cc1 | inconclusive: 29.1 µM [activator, single point] | –
55 | Oc1c(N=NC(=S)Nc2ccccc2F)c2ccccc2n1Cc1ccccc1 | inconclusive: 29.1 µM [falling, single point] | –
56 | Cc1[nH]c2ccc(C(=O)OCC(=O)Nc3cccc(S(N)(=O)=O)c3)cc2c1C | inconclusive: 32.6 µM [falling, single point] | –
57 | Cc1ccccc1-c1nnc(SCc2ccccc2F)o1 | inconclusive: 5.8 µM [activator, partial curve] | –
58 | CCOC(=O)C1=C(C)N=C2c3ccccc3C(=O)C2C1c1ccc(Cl)cc1 (stereo unspecified) | inconclusive: 29.1 µM [falling, single point] | –
59 | Cc1ccc(C(=O)OCC(=O)c2cc(C)n(CC3CCCO3)c2C)cc1 (stereo unspecified) | inconclusive: 25.9 µM [activator, partial curve, poor fit] | –
60 | COc1ccc(S(=O)(=O)n2nc(OC(=O)c3ccc(C)cc3)cc2N)cc1 | active: 0.58 µM | –
61 | Cc1cc(N2CCN(S(=O)(=O)c3ccc4c(c3)OCCO4)CC2)n2ncnc2n1 | inconclusive: 8.2 µM [falling, partial curve, poor fit] | –
62 | Cn1c(=O)[nH]c(=O)c2c1nc1n2CCN1c1ccccc1 | inconclusive: 2.59 µM [falling, full curve, poor fit] | –
63 | O=C(CCCCn1c(=S)[nH]c2ccsc2c1=O)NCc1ccc2c(c1)OCO2 | inconclusive: 7.31 µM [falling, partial curve, poor fit] | –
64 | COc1cc(/C=C/C(=O)Oc2coc(CSc3ncccn3)cc2=O)cc(OC)c1OC | – | inactive: 4.61%
65 | CCCCCn1c(N2CCN(Cc3ccccc3)CC2)nc2c1c(=O)[nH]c(=O)n2C | inconclusive: 16.4 µM [falling, single point] | –
66 | COc1ccc(S(=O)(=O)N2CCOCC2)cc1C(=O)N(C)CCOc1ccc(Cl)cc1 | inconclusive: 14.6 µM [falling, partial curve, poor fit] | –
